Test results from the supplement of paper PMC12067093, “Discovery and optimisation of a covalent ligand for TRIM25 and its application to targeted protein ubiquitination” (Chemical Science, 2025).
The other results are listed elsewhere or left out.

Compound: Cc1cc(ccc1-c1ccccc1)C(=O)N1CCCN(CC1)C(=O)CCl [compound 10]
Test: probe-labelled cysteine peptide fold change vs DMSO (competition) (log2 fold change); higher = less target engagement (more negative = stronger competition)
Details: THP-1, incubation time: 4 h
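Also: competitive profiling in live THP-1 cells: cysteine peptides tagged with an iodoacetamide desthiobiotin (IA-DTB) probe, intensity after compound treatment relative to DMSO-treated cells.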

## SLC30A1_Q9Y6M5_433_SSVVPCELACR (UniProt Q9Y6M5)
10 µM
  probe-labelled cysteine peptide fold change: -0.074
50 µM
  probe-labelled cysteine peptide fold change: -0.832

## SF3A2_Q15428_56_NHLGSYECK (UniProt Q15428)
10 µM
  probe-labelled cysteine peptide fold change: -0.00759
50 µM
  probe-labelled cysteine peptide fold change: -0.417

## SETDB1_Q15047_731_GVFINTGPEFLVGCDCK (UniProt Q15047)
10 µM
  probe-labelled cysteine peptide fold change: -0.198
50 µM
  probe-labelled cysteine peptide fold change: -0.149

## SINHCAF_Q9NP50_41_DFQSCFGLHETR (UniProt Q9NP50)
10 µM
  probe-labelled cysteine peptide fold change: -0.13
50 µM
  probe-labelled cysteine peptide fold change: -0.193

## SH3GL1_Q99961_277_PREPFDLGEPEQSNGGFPCTTAPK (UniProt Q99961)
10 µM
  probe-labelled cysteine peptide fold change: -0.116
50 µM
  probe-labelled cysteine peptide fold change: -0.627

## SH3GL1_Q99961_277_EPFDLGEPEQSNGGFPCTTAPK (UniProt Q99961)
10 µM
  probe-labelled cysteine peptide fold change: -0.27
50 µM
  probe-labelled cysteine peptide fold change: -0.207

## SHMT2_P34897_80_GLELIASENFCSR (UniProt P34897)
10 µM
  probe-labelled cysteine peptide fold change: 0.193
50 µM
  probe-labelled cysteine peptide fold change: 0.303

## SLAIN1_Q8ND83_313_KGTCSDQEYDQYSLEDEEEFDHLPPPQPR (UniProt Q8ND83)
10 µM
  probe-labelled cysteine peptide fold change: -0.0555
50 µM
  probe-labelled cysteine peptide fold change: -0.229

## SLC1A4_P43007_500_VEAIPNCK (UniProt P43007)
10 µM
  probe-labelled cysteine peptide fold change: -0.218
50 µM
  probe-labelled cysteine peptide fold change: -0.188

## SF3A2_Q15428_59_LCLTLHNNEGSYLAHTQGK (UniProt Q15428)
10 µM
  probe-labelled cysteine peptide fold change: -0.0247
50 µM
  probe-labelled cysteine peptide fold change: -0.402

## SETX_Q7Z333_2384+2389_DCVIVTCVR (UniProt Q7Z333)
10 µM
  probe-labelled cysteine peptide fold change: 0.0181
50 µM
  probe-labelled cysteine peptide fold change: -0.172

## SF1_Q15637_282+292_CGGAGHIASDCK (UniProt Q15637)
10 µM
  probe-labelled cysteine peptide fold change: 0.0743
50 µM
  probe-labelled cysteine peptide fold change: -0.0388

## SIVA1_O15304_62_LLFLGAQAYLDHVWDEGCAVVHLPESPKPGPTGAPR (UniProt O15304)
10 µM
  probe-labelled cysteine peptide fold change: 0.299
50 µM
  probe-labelled cysteine peptide fold change: 0.218

## SKIV2L_Q15477_247_GDTVSASPCSAPLAR (UniProt Q15477)
10 µM
  probe-labelled cysteine peptide fold change: -0.402
50 µM
  probe-labelled cysteine peptide fold change: -0.17

## SHTN1_A0MZ66_442_GCESAVDELK (UniProt A0MZ66)
10 µM
  probe-labelled cysteine peptide fold change: -0.093
50 µM
  probe-labelled cysteine peptide fold change: -0.147

## SGO2_Q562F6_681_DNENQCDYR (UniProt Q562F6)
10 µM
  probe-labelled cysteine peptide fold change: 0.0758
50 µM
  probe-labelled cysteine peptide fold change: -0.25

## SKA1_Q96BD8_10_ASSDLEQLCSHVNEK (UniProt Q96BD8)
10 µM
  probe-labelled cysteine peptide fold change: 0.00496
50 µM
  probe-labelled cysteine peptide fold change: -0.177

## SEPT9_Q9UHD8_410+411_VHCCLYFIPATGHSLRPLDIEFMK (UniProt Q9UHD8)
10 µM
  probe-labelled cysteine peptide fold change: -0.00614
50 µM
  probe-labelled cysteine peptide fold change: -0.119

## SFXN2_Q96NB2_189_WVPFAAVAAANCVNIPMMR (UniProt Q96NB2)
10 µM
  probe-labelled cysteine peptide fold change: -0.0553
50 µM
  probe-labelled cysteine peptide fold change: 0.123

## SETX_Q7Z333_1565_NQGEYCPK (UniProt Q7Z333)
10 µM
  probe-labelled cysteine peptide fold change: -0.228
50 µM
  probe-labelled cysteine peptide fold change: -0.146

## SETX_Q7Z333_884_NEELVIFSFHENNCK (UniProt Q7Z333)
10 µM
  probe-labelled cysteine peptide fold change: -0.233
50 µM
  probe-labelled cysteine peptide fold change: -0.444

## SLC25A1_P53007_262_NTWDCGLQILK (UniProt P53007)
10 µM
  probe-labelled cysteine peptide fold change: 0.0653
50 µM
  probe-labelled cysteine peptide fold change: -0.00694

## SERGEF_Q9UGK8_73_ITGGGGHSAVVTDGGDLFVCGLNK (UniProt Q9UGK8)
10 µM
  probe-labelled cysteine peptide fold change: 0.122
50 µM
  probe-labelled cysteine peptide fold change: -0.0198

## SGO2_Q562F6_1041_HITSEADSDPGNPVELCK (UniProt Q562F6)
10 µM
  probe-labelled cysteine peptide fold change: -0.0847
50 µM
  probe-labelled cysteine peptide fold change: 0.0781

## SF3B3_Q15393_1179_NVIDGDLCEQFNSMEPNK (UniProt Q15393)
10 µM
  probe-labelled cysteine peptide fold change: -0.393
50 µM
  probe-labelled cysteine peptide fold change: -0.0757

## SF3B3_Q15393_547_CAVNQR (UniProt Q15393)
10 µM
  probe-labelled cysteine peptide fold change: 0.197
50 µM
  probe-labelled cysteine peptide fold change: 0.0267

## SLC27A2_O14975_414_DEPVRDENGYCVR (UniProt O14975)
10 µM
  probe-labelled cysteine peptide fold change: 0.0722
50 µM
  probe-labelled cysteine peptide fold change: 0.42

## SFMBT1_Q9UHJ3_325_SFVCHADSPGIFPVQWSLK (UniProt Q9UHJ3)
10 µM
  probe-labelled cysteine peptide fold change: 0.104
50 µM
  probe-labelled cysteine peptide fold change: -0.00543

## SEPT8_Q92599_49_SVTQGFSFNILCVGETGIGK (UniProt Q92599)
10 µM
  probe-labelled cysteine peptide fold change: 0.0289
50 µM
  probe-labelled cysteine peptide fold change: 0.327

## SHC1_P29353_169_YMGCVEVLQSMR (UniProt P29353)
10 µM
  probe-labelled cysteine peptide fold change: 0.356
50 µM
  probe-labelled cysteine peptide fold change: 0.2

## SF3A3_Q12874_437_CLGIPNTAHFANVTQIEDAVSLWAK (UniProt Q12874)
10 µM
  probe-labelled cysteine peptide fold change: 0.0901
50 µM
  probe-labelled cysteine peptide fold change: 0.15

## SETDB1_Q15047_781_RLEECLPTGVYECNKR (UniProt Q15047)
10 µM
  probe-labelled cysteine peptide fold change: 0.0271
50 µM
  probe-labelled cysteine peptide fold change: -0.403

## SIL1_Q9H173_408_VLQTLGVLLTTCR (UniProt Q9H173)
10 µM
  probe-labelled cysteine peptide fold change: 0.427
50 µM
  probe-labelled cysteine peptide fold change: 0.362

## SEPT8_Q92599_80_STLMNTLFNTTFETEEASHHEACVR (UniProt Q92599)
10 µM
  probe-labelled cysteine peptide fold change: -0.0355
50 µM
  probe-labelled cysteine peptide fold change: -0.0172

## SLC25A3_Q00325-2_67+75_YYALCGFGGVLSCGLTHTAVVPLDLVK (UniProt Q00325)
10 µM
  probe-labelled cysteine peptide fold change: 0.149
50 µM
  probe-labelled cysteine peptide fold change: -0.147

## SETD2_Q9BYW2_836_ISSNSFMNVHLESKPVICDSR (UniProt Q9BYW2)
10 µM
  probe-labelled cysteine peptide fold change: 0.115
50 µM
  probe-labelled cysteine peptide fold change: 0.0162

## SGK3_Q96BR1_13_ESCPSVSIPSSDEHR (UniProt Q96BR1)
10 µM
  probe-labelled cysteine peptide fold change: -0.212
50 µM
  probe-labelled cysteine peptide fold change: -0.17

## SLC30A1_Q9Y6M5_437_SSVVPCELACR (UniProt Q9Y6M5)
10 µM
  probe-labelled cysteine peptide fold change: -0.204
50 µM
  probe-labelled cysteine peptide fold change: -0.404

## SETD1B_Q9UPS6_1908_FINHSCNPNCYAK (UniProt Q9UPS6)
10 µM
  probe-labelled cysteine peptide fold change: 0.136
50 µM
  probe-labelled cysteine peptide fold change: 0.0984

## SLC1A5_Q15758_363_CVEENNGVAK (UniProt Q15758)
10 µM
  probe-labelled cysteine peptide fold change: 0.0149
50 µM
  probe-labelled cysteine peptide fold change: -0.0681

## SLC25A10_Q9UBX3_181_GALVTVGQLSCYDQAK (UniProt Q9UBX3)
10 µM
  probe-labelled cysteine peptide fold change: 0.034
50 µM
  probe-labelled cysteine peptide fold change: 0.264
